Experimental data from PMC9253731.
These are yes or no findings as the source states them, for the method shown. Binding seen in cells or lysates may run through a third protein. These calls come from enrichment with a bait or labelling near it, and not all partners need be listed.

Sequences of proteins named here, by UniProt entry; tags and fusion partners are left off.
UniProt O00571: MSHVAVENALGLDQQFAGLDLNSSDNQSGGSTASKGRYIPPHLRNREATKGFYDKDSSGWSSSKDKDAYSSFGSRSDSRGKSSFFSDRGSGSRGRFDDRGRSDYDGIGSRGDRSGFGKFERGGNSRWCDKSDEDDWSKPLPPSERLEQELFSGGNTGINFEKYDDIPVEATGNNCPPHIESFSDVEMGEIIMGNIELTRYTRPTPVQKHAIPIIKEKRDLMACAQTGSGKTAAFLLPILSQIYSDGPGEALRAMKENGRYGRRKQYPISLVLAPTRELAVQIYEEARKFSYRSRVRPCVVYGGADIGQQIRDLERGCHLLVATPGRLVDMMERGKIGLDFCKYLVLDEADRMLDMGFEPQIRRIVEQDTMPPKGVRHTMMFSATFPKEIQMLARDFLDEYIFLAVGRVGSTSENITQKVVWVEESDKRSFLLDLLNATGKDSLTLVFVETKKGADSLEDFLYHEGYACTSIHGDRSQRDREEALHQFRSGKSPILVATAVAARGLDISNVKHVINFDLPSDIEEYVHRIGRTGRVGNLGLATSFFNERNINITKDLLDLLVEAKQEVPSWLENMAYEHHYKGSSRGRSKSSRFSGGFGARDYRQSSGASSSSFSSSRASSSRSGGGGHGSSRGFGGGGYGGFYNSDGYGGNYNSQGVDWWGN
UniProt Q13177: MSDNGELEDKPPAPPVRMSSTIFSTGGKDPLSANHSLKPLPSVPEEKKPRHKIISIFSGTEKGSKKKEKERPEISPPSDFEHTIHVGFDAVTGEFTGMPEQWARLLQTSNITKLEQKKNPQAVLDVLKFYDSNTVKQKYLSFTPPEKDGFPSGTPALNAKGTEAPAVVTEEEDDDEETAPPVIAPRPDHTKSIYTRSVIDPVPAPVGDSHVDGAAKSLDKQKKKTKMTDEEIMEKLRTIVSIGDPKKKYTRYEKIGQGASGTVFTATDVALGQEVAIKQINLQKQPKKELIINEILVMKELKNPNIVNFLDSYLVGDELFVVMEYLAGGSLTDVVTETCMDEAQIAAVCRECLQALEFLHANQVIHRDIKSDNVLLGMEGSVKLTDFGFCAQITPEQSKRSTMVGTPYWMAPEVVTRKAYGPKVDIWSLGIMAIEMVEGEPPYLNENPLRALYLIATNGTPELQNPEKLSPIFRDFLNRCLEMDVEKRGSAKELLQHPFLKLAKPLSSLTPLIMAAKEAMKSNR

biological target: Yin Yang 1 (human (endogenous in MDA-MB-231 and BT549)) (UniProt P25490); test: affinity purification with mass spectrometry; immunoprecipitation of endogenous YY1 with 20 ug anti-YY1 antibody (Pierce Classic Magnetic IP/Co-IP kit) from MDA-MB-231 and BT549 lysates, control IgG; SDS-PAGE, silver staining, bands excised, HPLC-MS; H/L ratio > 2.0

binding, binds:
PTPN11 (from UniProt Q06124 1-593)
DEAD-box helicase 3 X-linked (from UniProt O00571 1-662)
PAK2 (from UniProt Q13177 1-524)
